Measurements reported in PubChem BioAssay AID1259405 (NCATS, 2018)
The whole screen tested about 50,000 reagents; shown is a part drawn at random. Over the whole deposit, about 4,000 (8%) got an active call. 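Mouse siRNA library applied to hamster cells; one well for each siRNA.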 Entries without a mark were called inactive. Reagent sequences are not shown.

Screen: 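Mouse-designed siRNAs used to find CHO productivity engineering targets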 (primary screen)
Cell system: Chinese hamster CHO-K1 ovary cells with stable secreted eGFP expression
Reagents: single siRNA against mouse genes, 0.8 pmol siRNA per well (2 µl of 400 nM stock)
Time to read-out: 3 days
Read-out: 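Per-well intracellular GFP measured by laser scanning cytometry, plus viability from ATP luminescence, each relative to plate median of non-targeting control wells, in %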
Reading the numbers: GFP, % of control: higher = more GFP per well, higher productivity; viability (ATP), % of control: higher = more viable cells (more ATP)
Call rule: 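Called active when intracellular GFP, relative to negative control, is at or above 120%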

| Target gene | PubChem SID | GFP, % of control | viability (ATP), % of control |
| --- | --- | --- | --- |
| Spry3 | SID363541792 | 34 | 35.6 |
| Spry3 | SID363553384 | 108 | 62.9 |
| Spry3 | SID363566708 | 113 | 90.8 |
| Cldn9 | SID363572603 | 66.7 | 33.4 |
| Cldn9 | SID363577883 | 149 (active) | 72.3 |
| Cldn9 | SID363582107 | 86.2 | 100 |
| Morc2b | SID363542337 | 90.3 | 70.1 |
| Morc2b | SID363551828 | 70.7 | 59.2 |
| Morc2b | SID363559433 | 91.7 | 93.6 |
| Inhbb | SID363541577 | 54.5 | 45.9 |
| Inhbb | SID363556204 | 58.8 | 64.7 |
| Inhbb | SID363566493 | 74.3 | 72.3 |
| Rassf10 | SID363553791 | 75.6 | 80.4 |
| Rassf10 | SID363561748 | 65.5 | 62.7 |
| Rassf10 | SID363565486 | 88.8 | 73.2 |
| Naip1 | SID363572972 | 99.9 | 91.7 |
| Naip1 | SID363577548 | 115 | 77.6 |
| Naip1 | SID363581068 | 73.7 | 64.8 |
| Letmd1 | SID363544259 | 70.8 | 62 |
| Letmd1 | SID363550587 | 77.7 | 82.3 |
| Letmd1 | SID363557136 | 78.6 | 82 |
| Hps4 | SID363540403 | 49.1 | 63.8 |
| Hps4 | SID363542155 | 93.5 | 50 |
| Hps4 | SID363567071 | 101 | 98.9 |
| Pla2g10 | SID363569304 | 86.7 | 65.4 |
| Pla2g10 | SID363577048 | 58.7 | 71.7 |
| Pla2g10 | SID363578456 | 91.8 | 75.3 |
| Oca2 | SID363574842 | 123 (active) | 87.7 |
| Oca2 | SID363575898 | 152 (active) | 111 |
| Oca2 | SID363580474 | 105 | 92.6 |
| Serpina9 | SID363573045 | 88.1 | 100 |
| Serpina9 | SID363577621 | 132 (active) | 78.9 |
| Serpina9 | SID363581141 | 56.3 | 78.6 |
| Ankrd69 | SID363542616 | 54.6 | 29.6 |
| Ankrd69 | SID363552107 | 91.1 | 46 |
| Ankrd69 | SID363559712 | 81.2 | 89.3 |
| Hmgxb3 | SID363542891 | 73.1 | 57.1 |
| Hmgxb3 | SID363546408 | 38.4 | 23.1 |
| Hmgxb3 | SID363548164 | 61.3 | 65.9 |
| Lrfn5 | SID363544283 | 68.5 | 61.6 |
| Lrfn5 | SID363550611 | 83.3 | 83.2 |
| Lrfn5 | SID363557160 | 68.1 | 58.9 |
| Gm9946 | SID363550317 | 88 | 90.3 |
| Gm9946 | SID363564826 | 92.7 | 72.2 |
| Gm9946 | SID363588371 | 74.2 | 117 |
| Zfp236 | SID363541167 | 48.6 | 58.2 |
| Zfp236 | SID363555794 | 84.2 | 82.5 |
| Zfp236 | SID363566083 | 69.5 | 64.1 |
| Maco1 | SID363540727 | 71.9 | 85.5 |
| Maco1 | SID363543178 | 77.2 | 64.4 |
| Maco1 | SID363552671 | 90.7 | 83.2 |
| Polr1h | SID363569300 | 112 | 149 |
| Polr1h | SID363583732 | 62.4 | 78.5 |
| Nrcam | SID363555177 | 52.1 | 58.1 |
| Nrcam | SID363563838 | 100 | 57.6 |
| Nrcam | SID363587384 | 82.7 | 90.9 |
| Caps2 | SID363581626 | 72 | 56.2 |
| Caps2 | SID363589120 | 99.4 | 89.3 |
| Scnn1a | SID363574720 | 133 (active) | 106 |
| Scnn1a | SID363575776 | 54.3 | 32.6 |
| Scnn1a | SID363580352 | 42.5 | 76 |
| Slc9d1 | SID363569061 | 88.6 | 109 |
| Slc9d1 | SID363583493 | 81.7 | 90.6 |
| Ranbp2 | SID363570124 | 70.7 | 101 |
| Ranbp2 | SID363576460 | 65.3 | 51.8 |
| Ranbp2 | SID363579628 | 70.5 | 66.7 |
| Ntn4 | SID363582448 | 117 | 120 |
| Ntn4 | SID363584208 | 86.5 | 90.8 |
| Aif1l | SID363553559 | 61.2 | 58.5 |
| Aif1l | SID363561516 | 48.3 | 73 |
| Aif1l | SID363565254 | 32 | 43.1 |
| Adrb3 | SID363571125 | 63.2 | 62.7 |
| Adrb3 | SID363571477 | 80.6 | 51.8 |
| Adrb3 | SID363571829 | 81.2 | 74.3 |
| Slc25a32 | SID363570169 | 68.9 | 81.8 |
| Slc25a32 | SID363576505 | 48.7 | 40.4 |
| Slc25a32 | SID363579673 | 80.1 | 73.1 |
| Cebpb | SID363573274 | 90 | 45.1 |
| Cebpb | SID363588513 | 108 | 72.4 |
| Ntf5 | SID363541775 | 97.9 | 99.2 |
| Ntf5 | SID363553367 | 69.3 | 49.6 |
| Ntf5 | SID363566691 | 58 | 44.9 |
| Dgkb | SID363570949 | 66.1 | 69.5 |
| Ncam2 | SID363555324 | 96.7 | 78.1 |
| Ncam2 | SID363563985 | 76.8 | 72.8 |
| Ncam2 | SID363587531 | 119 | 113 |
| Taf5 | SID363556455 | 91.2 | 54.6 |
| Taf5 | SID363586905 | 56.9 | 72.7 |
| Taf5 | SID363589013 | 131 (active) | 127 |
| H2-Q10 | SID363553757 | 13.2 | 6.43 |
| H2-Q10 | SID363561714 | 74.8 | 73.5 |
| H2-Q10 | SID363565452 | 129 (active) | 67.2 |
| Nkx2-9 | SID363568967 | 67.5 | 83.5 |
| Nkx2-9 | SID363583399 | 66.7 | 76.1 |
| Fads1 | SID363581767 | 107 | 123 |
| Fads1 | SID363589261 | 38 | 44.4 |
| Msrb3 | SID363545271 | 104 | 47.8 |
| Msrb3 | SID363548784 | 70.5 | 72.3 |
| Msrb3 | SID363562590 | 52.6 | 46 |
| Tgm2 | SID363570548 | 89.3 | 64 |
| Tgm2 | SID363579348 | 72.9 | 74.3 |
| Tgm2 | SID363583220 | 82.1 | 87 |
| Tex16 | SID363546118 | 48 | 35.9 |
| Tex16 | SID363549631 | 65.9 | 75.3 |
| Tex16 | SID363563437 | 92.2 | 77.9 |
| Cyp2a4 | SID363547641 | 80.8 | 38.7 |
| Cyp2a4 | SID363558410 | 42.9 | 41.7 |
| Cyp2a4 | SID363560168 | 76.8 | 89.3 |

8 entries already listed, sorted by “GFP, % of control”, highest first.
| Target gene | PubChem SID | GFP, % of control | viability (ATP), % of control |
| --- | --- | --- | --- |
| Cldn9 | SID363577883 | 149 (active) | 72.3 |
| Spry3 | SID363566708 | 113 | 90.8 |
| Spry3 | SID363553384 | 108 | 62.9 |
| Morc2b | SID363542337 | 90.3 | 70.1 |
| Cldn9 | SID363582107 | 86.2 | 100 |
| Morc2b | SID363551828 | 70.7 | 59.2 |
| Cldn9 | SID363572603 | 66.7 | 33.4 |
| Spry3 | SID363541792 | 34 | 35.6 |
